{
  "source": "the supplement of paper PMC6411743",
  "biological_target": "T1, UniProt O00410 and related entries",
  "T1 sequence (whole entry)": "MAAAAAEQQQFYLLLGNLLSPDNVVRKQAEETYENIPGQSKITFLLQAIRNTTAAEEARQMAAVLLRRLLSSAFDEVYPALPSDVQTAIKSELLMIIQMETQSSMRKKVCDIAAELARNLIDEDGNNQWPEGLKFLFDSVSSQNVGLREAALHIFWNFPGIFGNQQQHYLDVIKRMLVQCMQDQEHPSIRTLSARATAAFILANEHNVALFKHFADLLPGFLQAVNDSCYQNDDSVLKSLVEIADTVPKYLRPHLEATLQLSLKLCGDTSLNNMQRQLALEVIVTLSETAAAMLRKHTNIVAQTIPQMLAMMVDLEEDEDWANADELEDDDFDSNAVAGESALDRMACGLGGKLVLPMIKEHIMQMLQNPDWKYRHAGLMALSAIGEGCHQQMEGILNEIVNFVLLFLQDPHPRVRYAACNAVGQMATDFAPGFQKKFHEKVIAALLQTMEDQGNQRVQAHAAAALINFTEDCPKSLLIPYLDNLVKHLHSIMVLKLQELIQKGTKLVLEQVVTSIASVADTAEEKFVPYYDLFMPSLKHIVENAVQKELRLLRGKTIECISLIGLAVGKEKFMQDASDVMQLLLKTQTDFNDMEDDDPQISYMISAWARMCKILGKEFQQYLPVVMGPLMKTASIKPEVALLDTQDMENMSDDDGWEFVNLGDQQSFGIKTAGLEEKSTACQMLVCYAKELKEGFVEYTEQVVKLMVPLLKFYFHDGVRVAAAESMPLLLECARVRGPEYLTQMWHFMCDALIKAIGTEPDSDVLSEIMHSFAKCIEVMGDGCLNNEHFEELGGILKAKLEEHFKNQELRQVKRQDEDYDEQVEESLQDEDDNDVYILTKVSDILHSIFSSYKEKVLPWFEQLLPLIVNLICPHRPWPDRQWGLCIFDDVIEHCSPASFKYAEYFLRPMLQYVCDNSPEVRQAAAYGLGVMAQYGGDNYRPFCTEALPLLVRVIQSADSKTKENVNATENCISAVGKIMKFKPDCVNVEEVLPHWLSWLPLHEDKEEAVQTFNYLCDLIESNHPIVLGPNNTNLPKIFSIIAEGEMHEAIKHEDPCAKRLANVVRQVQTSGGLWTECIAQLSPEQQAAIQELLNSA",
  "assay": "NP40-soluble protein abundance relative to vehicle (solubility fold change) (ratio); higher = more soluble protein in presence of GTP",
  "experimental": "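Solubility proteome profiling in Jurkat crude lysate. Lysate was treated with Mg-GTP (0.1-10 mM) for 10 min at room temperature and 3 min at 37 °C, then solubilised with 0.8% NP40 and benzonase, followed by ultracentrifugation. Proteins were quantified by TMT10 LC-MS/MS; the value is the NP40-soluble abundance relative to the NP40-processed vehicle, from 3 independent experiments.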",
  "note": "± gives the standard deviation of the averaged measurements. Some of the results follow.",
  "data": [
    {"smiles": "Nc1nc2c(ncn2[C@@H]2O[C@H](COP(=O)(O)OP(=O)(O)OP(=O)(O)O)[C@@H](O)[C@H]2O)c(=O)[nH]1", "note": "[guanosine triphosphate]", "values": [
      {"measurement": "NP40-soluble protein abundance", "setting": "concentration: 0.1mM", "value": "0.953 ± 0.026"},
      {"measurement": "NP40-soluble protein abundance", "setting": "concentration: 0.5mM", "value": "0.964 ± 0.012"},
      {"measurement": "NP40-soluble protein abundance", "setting": "concentration: 1mM", "value": "0.925 ± 0.022"},
      {"measurement": "NP40-soluble protein abundance", "setting": "concentration: 2mM", "value": "0.9224 ± 0.0069"},
      {"measurement": "NP40-soluble protein abundance", "setting": "concentration: 4mM", "value": "0.908 ± 0.01"},
      {"measurement": "NP40-soluble protein abundance", "setting": "concentration: 6mM", "value": "0.9159 ± 0.0054"},
      {"measurement": "NP40-soluble protein abundance", "setting": "concentration: 8mM", "value": "0.904 ± 0.043"},
      {"measurement": "NP40-soluble protein abundance", "setting": "concentration: 10mM", "value": "0.912 ± 0.0063"}
    ]}
  ]
}
